Test system: SUP-B15
Experiment: Antiproliferative activity against human SUP-B15 cells after 72 hrs by CellTiter-Glo luminescent cell viability assay
Assay type: functional, cell-based
Details: SUP-B15, 72 h

With CN[C@@H]1C[C@H]2O[C@@](C)([C@@H]1OC)n1c3ccccc3c3c4c(c5c6ccccc6n2c5c31)C(=O)NC4 [STAUROSPORINE] the EC50 was 550 nM.

Reference: ChEMBL document CHEMBL4316610, “Synthesis and Biological Studies of (+)-Liquiditerpenoic Acid A (Abietopinoic Acid) and Representative Analogues: SAR Studies” (J Nat Prod, 2019)
